This note sets out measurements from article PMC8353527.

Chains of the proteins cited; added tags and fusions are not shown. Lines headed by an entry give the natural chain unless they say otherwise; changes in a name come on top.
UniProt Q9UNF0: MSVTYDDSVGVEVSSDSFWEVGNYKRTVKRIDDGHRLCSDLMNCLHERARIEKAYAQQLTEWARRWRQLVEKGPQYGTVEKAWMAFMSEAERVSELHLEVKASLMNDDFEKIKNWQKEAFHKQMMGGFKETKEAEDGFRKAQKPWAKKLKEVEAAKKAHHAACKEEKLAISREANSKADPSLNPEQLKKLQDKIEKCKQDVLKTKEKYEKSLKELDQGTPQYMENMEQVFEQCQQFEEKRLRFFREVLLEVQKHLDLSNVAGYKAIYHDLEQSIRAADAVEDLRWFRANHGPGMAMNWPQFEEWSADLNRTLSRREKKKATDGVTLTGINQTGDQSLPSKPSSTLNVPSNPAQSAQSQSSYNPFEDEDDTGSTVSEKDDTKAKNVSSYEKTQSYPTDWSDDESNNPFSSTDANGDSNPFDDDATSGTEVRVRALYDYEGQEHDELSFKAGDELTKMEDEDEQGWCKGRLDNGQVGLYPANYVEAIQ
UniProt Q99732: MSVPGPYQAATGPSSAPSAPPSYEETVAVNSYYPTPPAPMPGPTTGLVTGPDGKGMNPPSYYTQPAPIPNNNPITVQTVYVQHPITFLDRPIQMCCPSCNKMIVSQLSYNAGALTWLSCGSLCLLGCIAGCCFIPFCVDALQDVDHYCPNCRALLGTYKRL

Holding throughout (experiment): co-IP; HEK293T cells co-transfected; post-nuclear lysate in 10 mM Tris-HCl pH 7.4, 140 mM NaCl, 0.1% Triton X-100 incubated overnight with GFP-Trap resin, washed three times, western blot
Assay [1] has as its target T1, CDIP1 (cell death involved p53 target 1) (human) (UniProt Q9H305).
T1 sequence: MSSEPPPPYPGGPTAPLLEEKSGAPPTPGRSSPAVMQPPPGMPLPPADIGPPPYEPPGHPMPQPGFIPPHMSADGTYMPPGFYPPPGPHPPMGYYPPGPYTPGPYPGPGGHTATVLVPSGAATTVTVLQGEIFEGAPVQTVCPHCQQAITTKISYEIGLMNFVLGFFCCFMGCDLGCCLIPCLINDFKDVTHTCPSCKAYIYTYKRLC

A further assay addresses T2, GFP–EHD1 (UniProt Q9H4M9).
T2 sequence: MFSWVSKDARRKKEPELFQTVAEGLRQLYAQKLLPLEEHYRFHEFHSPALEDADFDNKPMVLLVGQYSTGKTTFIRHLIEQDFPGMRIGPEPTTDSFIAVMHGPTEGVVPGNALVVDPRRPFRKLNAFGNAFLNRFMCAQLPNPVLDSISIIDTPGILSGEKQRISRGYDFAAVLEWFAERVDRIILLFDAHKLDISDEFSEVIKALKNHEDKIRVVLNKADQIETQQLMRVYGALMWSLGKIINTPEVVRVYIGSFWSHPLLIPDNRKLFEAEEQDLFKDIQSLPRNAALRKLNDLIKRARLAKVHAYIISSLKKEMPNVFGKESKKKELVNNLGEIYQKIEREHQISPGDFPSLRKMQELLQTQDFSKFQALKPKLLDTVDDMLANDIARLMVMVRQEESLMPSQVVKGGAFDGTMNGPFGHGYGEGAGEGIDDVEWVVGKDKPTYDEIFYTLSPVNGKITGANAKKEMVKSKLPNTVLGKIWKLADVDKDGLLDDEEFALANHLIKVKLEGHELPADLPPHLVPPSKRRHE

In another assay the target is GFP–Pacsin2 (UniProt Q9UNF0).

Results are given in words; binding and its absence hold for the method and conditions named. Binding seen in cells or lysates may run through a third protein. Some entries that bind do so weakly or less than the wild type. For part of these data: Sequences can lack the tags named with a protein.

With “LITAF (construct of the co-immunoprecipitation with CDIP1, Fig. S5A) (from UniProt Q99732 1-161)”, the binding result in assay [1] is reported as “binds”.
In the case of “Myc-LITAF (LPS-induced TNF-activating factor) (from UniProt Q99732 1-161)”, in the assay with GFP–EHD1, the binding result is reported as “binds”.
Consider “V5–LITAF (LPS-induced TNF-activating factor) (from UniProt Q99732 1-161)”, for which the binding result in the assay with GFP–Pacsin2 is reported as “binds”.
